Some of the results follow. Repeats in this data set agree poorly, so a single value says little.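 Human kidney-derived cells stably carry a construct in which eight TEAD-binding elements drive luciferase, measured by luminescence in a drug-repurposing library screen. A hit is any compound whose signal exceeds the plate mean by more than five robust Z scores.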
Tested on: HEK293A TEAD-LUC reporter
Assay: TEAD-luciferase reporter activity (YAP activation), robust Z score vs plate; higher = stronger YAP/TEAD activation
Conditions: 24 h

Compound | TEAD-luciferase reporter activity (compound concentration: 200 nM) | TEAD-luciferase reporter activity (compound concentration: 2 uM) | TEAD-luciferase reporter activity (compound concentration: 10 uM)
NS(=O)(=O)c1ccc(N2N=C(C(F)(F)F)CC2c2c[nH]c3cc(Cl)ccc23)cc1 (centres undefined) [onconoxib] | inactive: -0.443 | inactive: 0.385 | inactive: 2.05
CNC1CN(c2c(F)cc3c(=O)c(C(=O)O)cn(-c4nc(N)c(F)cc4F)c3c2Br)C1 | inactive: 1.31 | inactive: 0.629 | inactive: 2.8
N=C(N)c1ccc(CNC(=O)[C@H](Cc2cccc(CN)c2)NC(=O)[C@@H](CCCc2ccccc2)NS(=O)(=O)Cc2cccc(C(=O)O)c2)cc1 | inactive: -0.944 | inactive: -1.34 | inactive: -0.783
Cc1cc(NS(=O)(=O)c2ccccc2)n(-c2ccccc2)n1 | inactive: -0.86 | inactive: -0.437 | inactive: 1.94
CCC(C(=O)O)c1ccc(CC(C)C)cc1 (centres undefined) [butibufen] | inactive: 0.838 | inactive: -1.73 | inactive: 0.324
CCOC1c2ccccc2C(=O)N(C)c2ccccc21 (centres undefined) [etazepine] | inactive: 1.26 | inactive: 0.672 | inactive: -0.204
O=C(CCc1c[nH]c2ccccc12)N1CCc2[nH]c3ccc(F)cc3c2C1 | inactive: -0.545 | inactive: -1.46 | inactive: -1.31
Cc1cc2[nH]c(=N)[nH]c(=N)n2n1 [dametralast] | inactive: -2.41 | inactive: -2.9 | inactive: -2.39
CN(C)CCC(c1ccc(Cl)cc1)c1ccccn1 (centres undefined) [Chlorpheniramine113-92-8] | inactive: -0.255 |  | inactive: 1.45
CN(C)CCC(c1ccc(Cl)cc1)c1ccccn1 (centres undefined) [chlorphenamine, Alza] |  | inactive: 0.603 | 
C[N+](C)(C)CCOP(=O)(O)OCC(O)CO [choline-L-alfoscerate] | inactive: -0.482 | inactive: -1.51 | inactive: 4
CCCN1C[C@H](C)[C@@H](O)[C@](C)(O)C(CC)OC(=O)[C@H](C)C(O[C@H]2C[C@@](C)(OC)[C@@H](O)[C@H](C)O2)[C@H](C)[C@@H](O[C@@H]2O[C@H](C)C[C@H](N(C)C)[C@H]2O)[C@](C)(O)C[C@H]1C (some centres undefined) [Gamithromycin] | inactive: -0.161 |  | inactive: 0.415
O=C(NC1CC1)c1ccc(-n2cnc3ccccc3c2=O)cc1 | inactive: -1.88 | inactive: -1.19 | inactive: 3.52
CC1(C)OC2CC3C4CC(F)C5=CC(=O)C=CC5(C)C4(F)C(O)CC3(C)C2(C(=O)CO)O1 (centres undefined) [fluocinolone acetonide] | inactive: 0.17 | inactive: 0.822 | inactive: 2.32
Cc1c(F)cc2c(=O)c(C(=O)O)cn3c2c1CCC3C (centres undefined) [ibafloxacin] | inactive: -1.06 | inactive: -0.573 | inactive: -1.31
N#Cc1cc(-c2nc(-c3ccncc3)n[nH]2)ccn1 [topiroxostat] | inactive: 2.17 | inactive: -0.558 | inactive: -1.56
Cc1ccc(Sc2ccccc2C2CCNCC2)cc1 | inactive: 0.815 | inactive: -1.07 | inactive: 2.7
CCCOc1ccc2nc(NC(=O)OC)sc2c1 [Tioxidazole] | inactive: 1.41 | inactive: -0.892 | inactive: 1.62
CCCc1nn(C)c2c(=O)nc(-c3cc(S(=O)(=O)N4CCN(CCO)CC4)ccc3OCC)[nH]c12 | inactive: 0.124 |  | inactive: 3.37
CCCc1nn(C)c2c(=O)nc(-c3cc(S(=O)(=O)N4CCN(CCO)CC4)ccc3OCC)[nH]c12 [Lodenafil] |  | inactive: -1.23 | 
CC[N+](C)(C)Cc1ccccc1Br [Bretylium tosilate] | inactive: -1.89 | inactive: 0.71 | inactive: -0.369
C=C1C[C@@H](O)[C@H](/C=C/[C@@H](O)C(C)(C)CCCC)[C@H]1C/C=C\CCCC(=O)O [Meteneprost] | inactive: 0.275 | inactive: -1.89 | inactive: -1.15
O=C1CC2CCCC(C1)N2C(=O)c1ccc(F)cc1 | inactive: 0.961 |  | active: 5.06
Cc1cc(NC(=O)NCCN2CCC(O)(Cc3ccccc3)CC2)c2ccccc2n1 [Palosuran] | inactive: 2.31 | inactive: -0.248 | inactive: 2.5
O=C(CCCCCCNC(=O)c1cnc(N(c2ccccc2)c2ccccc2Cl)nc1)NO [Citarinostat] | inactive: -0.41 | active: 9.05 | inactive: 2.98
O=C1c2c(O)ccc(O)c2C(=O)c2c(NCCNCCO)ccc(NCCNCCO)c21 | inactive: -0.241 |  | inactive: -0.0646
O=C1c2c(O)ccc(O)c2C(=O)c2c(NCCNCCO)ccc(NCCNCCO)c21 [mitoxantrone] |  | active: 6.77 | 
CC(C)[C@H](N)C(=O)N1CCC[C@H]1C(=O)N1CCC[C@H]1C(=O)O | inactive: -1.52 | inactive: -0.345 | inactive: 4.45

Some of the entries above, set out differently:

| Compound | TEAD-luciferase reporter activity (compound concentration: 200 nM) | TEAD-luciferase reporter activity (compound concentration: 2 uM) | TEAD-luciferase reporter activity (compound concentration: 10 uM) |
| --- | --- | --- | --- |
| CCCOc1ccc2nc(NC(=O)OC)sc2c1 [Tioxidazole] | inactive: 1.41 | inactive: -0.892 | inactive: 1.62 |
| CCCc1nn(C)c2c(=O)nc(-c3cc(S(=O)(=O)N4CCN(CCO)CC4)ccc3OCC)[nH]c12 | inactive: 0.124 |  | inactive: 3.37 |
| CCCc1nn(C)c2c(=O)nc(-c3cc(S(=O)(=O)N4CCN(CCO)CC4)ccc3OCC)[nH]c12 [Lodenafil] |  | inactive: -1.23 |  |

Additional results follow:

Compound | TEAD-luciferase reporter activity (compound concentration: 200 nM) | TEAD-luciferase reporter activity (compound concentration: 2 uM) | TEAD-luciferase reporter activity (compound concentration: 10 uM)
CC(=O)N1CCN(CCN2[C@@H]3CC[C@H]2C[C@@H](NC(=O)c2nn(C(C)C)c4ccccc24)C3)CC1 | inactive: -2.13 | inactive: -0.581 | inactive: -0.461
O=C(Nc1ccncc1)NN1CC=CCC1 | inactive: -0.226 | inactive: -1.14 | inactive: -0.521
Nc1cccc(CN2C(=O)N(Cc3ccc4[nH]ncc4c3)[C@H](Cc3ccccc3)[C@H](O)[C@@H](O)[C@H]2Cc2ccccc2)c1 | inactive: -0.0244 | inactive: 1.34 | inactive: -0.457
O=c1c(CO)coc2cc(OCCCN3CCC(c4noc5cc(F)ccc45)CC3)ccc12 | inactive: -1.34 | inactive: 0.232 | inactive: 0.348
CCN(CC)CCC1(c2ccccc2)CCC(=O)NC1=O (centres undefined) | inactive: -1.37 | inactive: -0.0492 | inactive: -0.17
COc1c(C)c2c(c(O)c1C/C=C(\C)CCC(=O)O)C(=O)OC2 [Mycophenolic Acid Sodium] |  | inactive: 0.65 | 
COc1c(C)c2c(c(O)c1C/C=C(\C)CCC(=O)O)C(=O)OC2 [Mycophenolic Acid] | inactive: -0.317 |  | inactive: 0.785
Cc1oc(=O)oc1COC(=O)[C@@H]1N2C(=O)[C@@H](NC(=O)[C@H](N)c3ccccc3)[C@H]2SC1(C)C [lenampicillin] | inactive: -1.48 | inactive: -0.273 | inactive: -1.63
Cc1oc(=O)oc1CN1CCN(c2cc3c(cc2F)c(=O)c(C(=O)O)c2n3C(C)S2)CC1 (centres undefined) [prulifloxacin] | inactive: -0.416 | inactive: -0.589 | inactive: -1
COc1c(OC)c(OC)c2c(c1O)c(=O)c1ccc(O)c(OC)c1n2C | inactive: -1.43 | inactive: -0.436 | inactive: 1.62
CCOc1ccc(CC2NC(=O)CCSSCC(C(=O)N3CCCC3C(=O)NC(CC(C)C)C(=O)NCC(N)=O)NC(=O)C(CC(N)=O)NC(=O)C(CCC(N)=O)NC(=O)C(C(C)CC)NC2=O)cc1 (centres undefined) [deamino-ethyl-oxytocin] | inactive: 1.49 | inactive: 0.521 | inactive: -0.00476
CCCC(Oc1c(Cl)cccc1COc1ccc(OCc2ccc3ccccc3n2)cc1)C(=O)O (centres undefined) | inactive: -1.48 | inactive: 0.502 | inactive: 0.236
CN(C)CCC=C1c2ccccc2CCc2ccccc21 [amitriptyline, Elan] |  | inactive: -1.34 | 
CN(C)CCC=C1c2ccccc2CCc2ccccc21 [Annoyltin] | inactive: -1.28 |  | inactive: 1.35
O=C1CCCc2c1ccn2CCCCN1CCN(c2cccc(C(F)(F)F)c2)CC1 | inactive: -0.731 | inactive: -1.66 | inactive: 1.01
O=C(NCC(c1ccccc1)n1ccnc1)c1ccc(-c2ccc(Cl)cc2)cc1 (centres undefined) | inactive: -0.68 | inactive: -2.02 | inactive: -3.03
NC(=O)c1ccc[n+]([C@@H]2O[C@H](CO)[C@@H](O)[C@H]2O)c1 [Nicotinamide riboside_tab_] | inactive: -0.121 | inactive: 0.117 | inactive: 0.135
O=C(CCCCCCC(=O)Nc1ccccc1)NO [Vorinostat] | inactive: -3.66 |  | active: 36.4
O=C(CCCCCCC(=O)Nc1ccccc1)NO [vorinostat] |  | active: 24.6 | 
Cc1cc(-c2nc(-c3ccc(OC(F)(F)F)cc3)no2)nn1Cc1ccnc(N2CCN(C3CC3)CC2)c1 | inactive: -1.45 | inactive: 0.129 | inactive: 0.111
CCOCCn1nc(C(=O)NS(C)(=O)=O)c2nc(N(C)CC)nc(Nc3cc(C)ccn3)c21 | inactive: 2.18 | inactive: -1.44 | inactive: -0.507
Cc1cc(C)c(NC(=O)N(Cc2ccc3c(c2)Cc2ccccc2-3)C2CCCCCC2)c(C)c1 | inactive: 0.595 | inactive: 0.174 | inactive: 3.84
CCC(CO)Nc1nc(NCc2ccccc2)c2ncn(C(C)C)c2n1 (stereo in doubt) [(R)-Roscovitin] | inactive: -1.58 |  | inactive: 1.26
CCOC(=O)N1c2ccccc2Sc2ccccc21 | inactive: -1.41 | inactive: -0.24 | inactive: 1.49
Cc1ccccc1OCC(O)CNCCOc1ccc(C(N)=O)cc1 (centres undefined) [tolamolol] | inactive: -0.542 | inactive: 1.85 | inactive: 2.45
CNC(=O)C1CCN(Cc2cc(F)cc(NC(=O)Nc3ccc(C)nc3)c2)CC1 | inactive: -1.51 | inactive: 4.16 | inactive: -1.83
C/C(=C(/CCOC(=O)C(C)C)SS/C(CCOC(=O)C(C)C)=C(\C)N(C=O)Cc1cnc(C)nc1N)N(C=O)Cc1cnc(C)nc1N [sulbutiamine] | inactive: -0.844 | inactive: -0.881 | inactive: -2.09

Reference: the supplement of paper PMC10735217
